The text below walks through data of US20220324953A1.

The chains behind the UniProt entries cited, without tags or fusion partners. Residues count along the entry.
UniProt P29279, residues 27-349: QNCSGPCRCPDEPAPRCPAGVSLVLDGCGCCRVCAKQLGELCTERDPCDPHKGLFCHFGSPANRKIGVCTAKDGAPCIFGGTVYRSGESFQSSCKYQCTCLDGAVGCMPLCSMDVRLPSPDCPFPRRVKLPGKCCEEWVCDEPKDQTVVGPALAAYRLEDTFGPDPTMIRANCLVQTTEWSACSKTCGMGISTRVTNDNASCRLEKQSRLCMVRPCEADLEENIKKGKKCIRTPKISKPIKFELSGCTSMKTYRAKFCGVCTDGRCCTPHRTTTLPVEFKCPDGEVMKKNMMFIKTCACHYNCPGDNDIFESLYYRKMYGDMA

No constants are given. Whether binding was seen depends on the method and setting. Some entries that bind do so weakly or less than the wild type.

The target in assay [1] is Cynomolgus CTGF-Fc (fusion protein of cynomolgus CTGF coding region with Fc) (cynomolgus). Put plainly: ELISA. (An ELISA detects its analyte on a solid surface through an enzyme-linked reagent.)
The target in assay [2] is human CTGF (antigen of the Biacore assays) (human) (UniProt P29279). Put plainly: Biacore. A general note: SPR reads the build-up and loss of mass on a sensor chip optically.

B1: Hu164-69wl (antibody, human IgG1, lambda, V domains shown)
VH: EVTLKESGPVLVKPTETLTLTCTVSGFSLSTFGVHWIRQPPGKGLEWLGVIWRRGGTDYNAAFMSRLTISKDTSKSQVVFTMTNMDPVDTATYYCARDGGFDYWGQGTTVTVSS
VL: ESVVTQPPSVSGAPGQRVTISCRSSIGAVTTSNYANWVQQLPGTAFKGLIGGTSNRAPGVPDRFSGSKSGTSASLAITGLQAEDEADYYCALWYSTHYVFGGGTKLTVLG
As for B1, the binding result in assay [1] and in assay [2] was “binds” in each case.
